Results published in publication PMC11001699.
No constants are given. Whether binding was seen depends on the method and setting. Binding seen in cells or lysates may run through a third protein. A yes stands for co-enrichment or nearness to the bait. Other partners may have been found. Tags and fused reporters may be left off the sequences shown.

By UniProt entry, the sequences of proteins in these tests, tags left out.
UniProt Q15149: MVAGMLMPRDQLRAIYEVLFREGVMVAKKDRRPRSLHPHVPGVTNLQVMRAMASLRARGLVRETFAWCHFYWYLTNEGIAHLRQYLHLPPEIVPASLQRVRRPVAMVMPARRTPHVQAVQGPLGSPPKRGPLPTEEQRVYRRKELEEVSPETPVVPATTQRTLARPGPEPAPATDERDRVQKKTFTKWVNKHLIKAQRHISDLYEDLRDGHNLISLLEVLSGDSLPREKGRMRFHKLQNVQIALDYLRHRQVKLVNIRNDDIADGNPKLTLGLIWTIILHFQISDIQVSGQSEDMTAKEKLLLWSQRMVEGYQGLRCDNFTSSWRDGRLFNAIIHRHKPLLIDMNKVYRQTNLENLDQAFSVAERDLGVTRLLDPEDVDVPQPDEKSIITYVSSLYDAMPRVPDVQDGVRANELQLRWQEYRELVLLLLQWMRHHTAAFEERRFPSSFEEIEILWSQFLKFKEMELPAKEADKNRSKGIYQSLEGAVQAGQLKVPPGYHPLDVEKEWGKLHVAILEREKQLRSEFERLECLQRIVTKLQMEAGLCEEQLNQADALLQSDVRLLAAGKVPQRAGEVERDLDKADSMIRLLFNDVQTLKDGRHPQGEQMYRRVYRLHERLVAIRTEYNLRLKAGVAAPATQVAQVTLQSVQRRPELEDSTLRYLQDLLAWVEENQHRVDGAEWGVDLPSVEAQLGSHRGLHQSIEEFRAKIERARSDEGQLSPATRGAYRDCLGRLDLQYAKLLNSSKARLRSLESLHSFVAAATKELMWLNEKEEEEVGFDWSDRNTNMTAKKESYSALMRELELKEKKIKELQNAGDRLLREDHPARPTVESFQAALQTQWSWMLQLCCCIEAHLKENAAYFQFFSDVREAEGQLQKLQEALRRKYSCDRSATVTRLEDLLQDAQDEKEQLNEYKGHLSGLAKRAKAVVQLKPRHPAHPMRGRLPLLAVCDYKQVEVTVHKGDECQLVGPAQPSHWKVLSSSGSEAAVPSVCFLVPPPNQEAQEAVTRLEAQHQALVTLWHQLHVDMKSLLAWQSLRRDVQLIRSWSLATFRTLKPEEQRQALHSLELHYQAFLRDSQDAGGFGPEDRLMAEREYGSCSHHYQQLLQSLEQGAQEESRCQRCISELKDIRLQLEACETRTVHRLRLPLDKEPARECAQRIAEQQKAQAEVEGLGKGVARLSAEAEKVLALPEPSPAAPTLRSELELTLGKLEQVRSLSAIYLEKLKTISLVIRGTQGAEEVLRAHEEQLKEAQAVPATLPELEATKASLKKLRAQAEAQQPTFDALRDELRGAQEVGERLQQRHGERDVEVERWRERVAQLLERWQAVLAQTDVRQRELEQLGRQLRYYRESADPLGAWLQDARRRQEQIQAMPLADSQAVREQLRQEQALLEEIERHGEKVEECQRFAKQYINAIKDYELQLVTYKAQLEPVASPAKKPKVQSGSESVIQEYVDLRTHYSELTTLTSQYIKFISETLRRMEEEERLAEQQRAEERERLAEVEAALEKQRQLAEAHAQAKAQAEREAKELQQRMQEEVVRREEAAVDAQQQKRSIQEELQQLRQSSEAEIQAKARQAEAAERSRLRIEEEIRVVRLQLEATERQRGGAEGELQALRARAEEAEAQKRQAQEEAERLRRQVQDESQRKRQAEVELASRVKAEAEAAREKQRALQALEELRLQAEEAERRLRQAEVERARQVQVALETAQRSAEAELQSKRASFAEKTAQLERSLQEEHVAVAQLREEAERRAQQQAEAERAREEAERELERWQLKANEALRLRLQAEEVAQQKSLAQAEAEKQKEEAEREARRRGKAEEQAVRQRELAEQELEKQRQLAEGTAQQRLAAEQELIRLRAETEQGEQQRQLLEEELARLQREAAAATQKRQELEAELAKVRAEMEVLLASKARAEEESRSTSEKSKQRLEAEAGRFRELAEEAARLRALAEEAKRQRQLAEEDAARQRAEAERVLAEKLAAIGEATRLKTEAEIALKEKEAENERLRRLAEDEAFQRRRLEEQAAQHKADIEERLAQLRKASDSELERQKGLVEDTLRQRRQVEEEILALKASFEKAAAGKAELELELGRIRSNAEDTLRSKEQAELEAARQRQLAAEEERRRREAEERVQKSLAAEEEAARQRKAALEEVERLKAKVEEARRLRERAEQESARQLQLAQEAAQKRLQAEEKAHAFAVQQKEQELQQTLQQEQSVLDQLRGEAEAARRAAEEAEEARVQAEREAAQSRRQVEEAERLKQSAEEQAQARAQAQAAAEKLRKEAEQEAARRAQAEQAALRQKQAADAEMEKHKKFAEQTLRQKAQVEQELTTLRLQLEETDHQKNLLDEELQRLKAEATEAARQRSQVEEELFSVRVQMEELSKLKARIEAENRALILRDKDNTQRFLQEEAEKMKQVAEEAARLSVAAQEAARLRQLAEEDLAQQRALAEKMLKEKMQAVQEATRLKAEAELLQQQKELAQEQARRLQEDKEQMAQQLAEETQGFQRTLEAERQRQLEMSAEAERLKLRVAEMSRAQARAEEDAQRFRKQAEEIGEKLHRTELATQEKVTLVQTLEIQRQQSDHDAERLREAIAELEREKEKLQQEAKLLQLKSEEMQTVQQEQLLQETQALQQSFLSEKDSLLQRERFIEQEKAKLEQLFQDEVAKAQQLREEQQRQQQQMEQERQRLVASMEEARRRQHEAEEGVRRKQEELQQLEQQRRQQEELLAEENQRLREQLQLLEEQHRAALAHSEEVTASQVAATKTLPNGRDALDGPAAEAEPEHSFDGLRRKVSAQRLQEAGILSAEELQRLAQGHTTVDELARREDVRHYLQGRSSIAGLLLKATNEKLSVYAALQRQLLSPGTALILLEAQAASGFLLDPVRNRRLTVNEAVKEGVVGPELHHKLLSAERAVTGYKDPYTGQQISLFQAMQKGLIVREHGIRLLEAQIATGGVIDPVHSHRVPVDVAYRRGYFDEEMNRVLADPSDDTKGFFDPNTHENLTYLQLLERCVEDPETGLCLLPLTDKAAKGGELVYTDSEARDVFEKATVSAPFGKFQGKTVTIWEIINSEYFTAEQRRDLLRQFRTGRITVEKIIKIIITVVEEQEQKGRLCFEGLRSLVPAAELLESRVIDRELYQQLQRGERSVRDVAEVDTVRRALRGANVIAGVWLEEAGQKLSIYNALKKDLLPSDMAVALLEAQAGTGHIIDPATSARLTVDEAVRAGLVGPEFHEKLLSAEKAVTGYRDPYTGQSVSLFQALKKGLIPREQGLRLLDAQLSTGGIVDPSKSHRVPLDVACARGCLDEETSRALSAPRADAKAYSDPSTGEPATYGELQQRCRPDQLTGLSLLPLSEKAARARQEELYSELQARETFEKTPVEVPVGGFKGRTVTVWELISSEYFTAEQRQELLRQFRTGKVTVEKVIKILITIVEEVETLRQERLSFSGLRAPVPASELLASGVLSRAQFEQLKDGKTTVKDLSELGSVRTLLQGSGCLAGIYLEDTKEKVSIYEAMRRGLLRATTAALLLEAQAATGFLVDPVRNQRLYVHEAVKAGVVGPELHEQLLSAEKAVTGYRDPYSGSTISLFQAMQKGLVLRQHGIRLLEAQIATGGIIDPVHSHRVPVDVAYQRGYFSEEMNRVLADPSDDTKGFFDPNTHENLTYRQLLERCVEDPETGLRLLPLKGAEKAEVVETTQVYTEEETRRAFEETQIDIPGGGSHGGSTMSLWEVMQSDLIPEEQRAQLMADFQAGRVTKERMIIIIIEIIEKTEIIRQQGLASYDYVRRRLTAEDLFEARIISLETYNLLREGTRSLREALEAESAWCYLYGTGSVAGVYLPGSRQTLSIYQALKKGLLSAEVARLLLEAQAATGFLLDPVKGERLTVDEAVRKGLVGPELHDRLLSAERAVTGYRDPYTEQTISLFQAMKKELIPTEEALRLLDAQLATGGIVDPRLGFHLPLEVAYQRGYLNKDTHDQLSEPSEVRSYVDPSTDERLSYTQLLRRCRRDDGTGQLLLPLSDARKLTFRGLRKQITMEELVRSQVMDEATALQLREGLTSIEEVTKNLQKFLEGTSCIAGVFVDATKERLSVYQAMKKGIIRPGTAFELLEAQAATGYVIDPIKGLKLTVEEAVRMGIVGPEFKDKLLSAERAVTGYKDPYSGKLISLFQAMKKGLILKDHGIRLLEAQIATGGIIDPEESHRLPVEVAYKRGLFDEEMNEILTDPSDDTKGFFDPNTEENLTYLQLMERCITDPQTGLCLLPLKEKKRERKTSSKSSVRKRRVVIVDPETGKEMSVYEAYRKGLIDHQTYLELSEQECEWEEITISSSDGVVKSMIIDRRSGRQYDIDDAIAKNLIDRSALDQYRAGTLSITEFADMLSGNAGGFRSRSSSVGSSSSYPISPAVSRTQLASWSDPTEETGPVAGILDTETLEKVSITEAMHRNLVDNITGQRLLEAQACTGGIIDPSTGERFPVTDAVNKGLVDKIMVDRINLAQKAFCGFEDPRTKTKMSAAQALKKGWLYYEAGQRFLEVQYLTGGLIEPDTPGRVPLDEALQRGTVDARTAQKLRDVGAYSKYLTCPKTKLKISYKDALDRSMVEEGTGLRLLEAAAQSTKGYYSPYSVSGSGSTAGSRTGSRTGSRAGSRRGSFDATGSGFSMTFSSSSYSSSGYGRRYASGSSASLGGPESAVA
UniProt O00571: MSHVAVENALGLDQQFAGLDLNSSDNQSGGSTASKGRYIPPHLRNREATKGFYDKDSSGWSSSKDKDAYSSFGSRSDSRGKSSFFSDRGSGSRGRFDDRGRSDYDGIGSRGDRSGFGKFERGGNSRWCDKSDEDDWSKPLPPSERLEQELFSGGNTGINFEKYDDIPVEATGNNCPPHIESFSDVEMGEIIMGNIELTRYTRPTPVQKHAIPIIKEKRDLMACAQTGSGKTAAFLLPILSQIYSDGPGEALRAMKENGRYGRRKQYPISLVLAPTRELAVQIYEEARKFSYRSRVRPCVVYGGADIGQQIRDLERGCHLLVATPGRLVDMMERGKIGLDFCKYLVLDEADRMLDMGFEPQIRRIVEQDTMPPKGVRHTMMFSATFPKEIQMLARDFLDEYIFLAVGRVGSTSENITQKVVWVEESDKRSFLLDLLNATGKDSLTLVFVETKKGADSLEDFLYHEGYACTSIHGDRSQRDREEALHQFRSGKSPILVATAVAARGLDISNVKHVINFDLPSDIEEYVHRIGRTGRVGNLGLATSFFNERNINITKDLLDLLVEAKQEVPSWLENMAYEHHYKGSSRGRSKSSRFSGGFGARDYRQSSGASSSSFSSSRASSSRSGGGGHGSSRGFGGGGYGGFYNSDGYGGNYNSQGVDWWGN

Molecular target: T1, GST-Rhes (Ras homolog enriched in the striatum) (not stated (rat or human cDNA cloned)) (UniProt Q96D21)
T1 sequence: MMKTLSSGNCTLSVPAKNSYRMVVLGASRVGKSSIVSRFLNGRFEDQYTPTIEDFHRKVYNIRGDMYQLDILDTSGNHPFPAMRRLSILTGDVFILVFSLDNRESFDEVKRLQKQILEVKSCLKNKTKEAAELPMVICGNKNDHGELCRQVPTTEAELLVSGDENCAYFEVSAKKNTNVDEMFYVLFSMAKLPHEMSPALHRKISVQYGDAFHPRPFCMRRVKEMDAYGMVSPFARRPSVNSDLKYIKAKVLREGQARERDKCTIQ
Assay: affinity purification with mass spectrometry; GST-Rhes + mSUMO3 against GST + mSUMO3 (control) affinity purified on glutathione beads from HEK293 lysates; LC-MS/MS in biological triplicate

binding | Substance
binds | PLEC (from UniProt Q15149 1-4684)
binds | DDX3X (from UniProt O00571 1-662)
